Measured values: PMC7863998
No constants are given. Whether binding was seen depends on the method and setting. In cells and extracts the contact can be indirect. Here binding means that the protein was enriched with, or labelled near, the bait; the list need not be complete. A no says only that the protein was not detected with the bait.

Protein sequences, listed by entry. Tags and fused reporters are not part of them.
UniProt P51532: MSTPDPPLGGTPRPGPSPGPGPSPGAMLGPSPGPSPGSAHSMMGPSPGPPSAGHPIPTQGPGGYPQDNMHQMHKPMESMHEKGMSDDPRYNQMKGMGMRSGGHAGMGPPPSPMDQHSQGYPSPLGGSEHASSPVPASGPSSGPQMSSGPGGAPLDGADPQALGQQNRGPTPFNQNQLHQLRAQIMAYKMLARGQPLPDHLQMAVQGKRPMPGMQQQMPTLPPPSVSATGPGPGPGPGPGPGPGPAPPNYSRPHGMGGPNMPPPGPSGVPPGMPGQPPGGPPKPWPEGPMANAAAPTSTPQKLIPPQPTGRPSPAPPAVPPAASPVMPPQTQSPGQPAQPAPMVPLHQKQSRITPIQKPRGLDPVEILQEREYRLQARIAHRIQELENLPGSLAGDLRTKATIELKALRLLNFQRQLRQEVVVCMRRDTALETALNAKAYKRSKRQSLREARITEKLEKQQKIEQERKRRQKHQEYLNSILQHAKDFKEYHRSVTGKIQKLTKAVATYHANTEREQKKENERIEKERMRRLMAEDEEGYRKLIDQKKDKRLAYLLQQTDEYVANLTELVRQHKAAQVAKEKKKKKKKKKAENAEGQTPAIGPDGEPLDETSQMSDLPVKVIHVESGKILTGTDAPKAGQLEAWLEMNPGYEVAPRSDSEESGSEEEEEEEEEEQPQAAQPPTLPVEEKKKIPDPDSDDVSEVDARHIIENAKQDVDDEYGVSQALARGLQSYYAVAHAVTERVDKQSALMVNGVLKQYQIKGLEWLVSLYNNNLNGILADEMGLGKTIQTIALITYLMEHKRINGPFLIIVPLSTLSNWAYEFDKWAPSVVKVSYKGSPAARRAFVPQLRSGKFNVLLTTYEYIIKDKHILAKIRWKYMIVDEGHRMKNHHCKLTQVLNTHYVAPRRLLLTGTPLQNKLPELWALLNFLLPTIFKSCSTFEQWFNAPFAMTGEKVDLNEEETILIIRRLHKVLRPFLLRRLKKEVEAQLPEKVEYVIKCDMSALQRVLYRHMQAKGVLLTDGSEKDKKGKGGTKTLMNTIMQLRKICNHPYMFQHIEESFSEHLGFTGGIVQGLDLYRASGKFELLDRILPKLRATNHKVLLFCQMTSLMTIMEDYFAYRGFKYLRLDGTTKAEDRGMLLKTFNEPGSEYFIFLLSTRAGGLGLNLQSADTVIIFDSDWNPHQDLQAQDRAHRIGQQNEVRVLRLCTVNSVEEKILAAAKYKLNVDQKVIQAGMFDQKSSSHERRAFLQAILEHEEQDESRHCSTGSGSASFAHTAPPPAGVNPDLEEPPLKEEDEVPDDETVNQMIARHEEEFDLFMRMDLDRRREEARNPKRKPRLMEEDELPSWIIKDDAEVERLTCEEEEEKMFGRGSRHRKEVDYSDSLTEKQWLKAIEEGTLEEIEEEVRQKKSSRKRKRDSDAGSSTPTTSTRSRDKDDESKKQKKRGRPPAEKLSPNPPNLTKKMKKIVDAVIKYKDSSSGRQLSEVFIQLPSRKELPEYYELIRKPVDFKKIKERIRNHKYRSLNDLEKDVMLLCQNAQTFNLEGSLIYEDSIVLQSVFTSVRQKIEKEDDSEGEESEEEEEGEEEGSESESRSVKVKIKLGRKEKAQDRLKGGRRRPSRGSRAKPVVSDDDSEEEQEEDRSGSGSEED
UniProt O96019: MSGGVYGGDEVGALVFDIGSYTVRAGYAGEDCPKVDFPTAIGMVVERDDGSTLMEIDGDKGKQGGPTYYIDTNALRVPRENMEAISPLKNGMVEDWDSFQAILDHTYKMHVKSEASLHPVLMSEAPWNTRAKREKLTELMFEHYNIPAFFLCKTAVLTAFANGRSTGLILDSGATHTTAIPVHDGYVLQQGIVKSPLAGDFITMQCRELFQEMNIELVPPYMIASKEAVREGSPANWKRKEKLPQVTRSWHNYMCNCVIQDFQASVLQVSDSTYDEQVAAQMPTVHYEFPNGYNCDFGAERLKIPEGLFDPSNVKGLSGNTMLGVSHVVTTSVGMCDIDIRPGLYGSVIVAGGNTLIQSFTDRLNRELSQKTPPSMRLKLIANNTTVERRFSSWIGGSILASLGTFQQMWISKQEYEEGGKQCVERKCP
UniProt Q92785: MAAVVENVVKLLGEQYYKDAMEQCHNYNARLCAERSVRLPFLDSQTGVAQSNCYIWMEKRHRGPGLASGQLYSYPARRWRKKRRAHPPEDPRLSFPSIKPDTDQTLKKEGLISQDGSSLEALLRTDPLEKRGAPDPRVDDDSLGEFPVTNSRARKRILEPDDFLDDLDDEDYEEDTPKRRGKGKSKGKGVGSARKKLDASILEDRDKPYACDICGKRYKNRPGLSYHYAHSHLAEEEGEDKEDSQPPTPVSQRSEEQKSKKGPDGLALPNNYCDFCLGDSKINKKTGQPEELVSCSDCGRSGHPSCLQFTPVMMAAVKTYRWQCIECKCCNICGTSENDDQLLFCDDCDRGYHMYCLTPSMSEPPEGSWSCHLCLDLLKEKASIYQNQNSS
UniProt Q86U86: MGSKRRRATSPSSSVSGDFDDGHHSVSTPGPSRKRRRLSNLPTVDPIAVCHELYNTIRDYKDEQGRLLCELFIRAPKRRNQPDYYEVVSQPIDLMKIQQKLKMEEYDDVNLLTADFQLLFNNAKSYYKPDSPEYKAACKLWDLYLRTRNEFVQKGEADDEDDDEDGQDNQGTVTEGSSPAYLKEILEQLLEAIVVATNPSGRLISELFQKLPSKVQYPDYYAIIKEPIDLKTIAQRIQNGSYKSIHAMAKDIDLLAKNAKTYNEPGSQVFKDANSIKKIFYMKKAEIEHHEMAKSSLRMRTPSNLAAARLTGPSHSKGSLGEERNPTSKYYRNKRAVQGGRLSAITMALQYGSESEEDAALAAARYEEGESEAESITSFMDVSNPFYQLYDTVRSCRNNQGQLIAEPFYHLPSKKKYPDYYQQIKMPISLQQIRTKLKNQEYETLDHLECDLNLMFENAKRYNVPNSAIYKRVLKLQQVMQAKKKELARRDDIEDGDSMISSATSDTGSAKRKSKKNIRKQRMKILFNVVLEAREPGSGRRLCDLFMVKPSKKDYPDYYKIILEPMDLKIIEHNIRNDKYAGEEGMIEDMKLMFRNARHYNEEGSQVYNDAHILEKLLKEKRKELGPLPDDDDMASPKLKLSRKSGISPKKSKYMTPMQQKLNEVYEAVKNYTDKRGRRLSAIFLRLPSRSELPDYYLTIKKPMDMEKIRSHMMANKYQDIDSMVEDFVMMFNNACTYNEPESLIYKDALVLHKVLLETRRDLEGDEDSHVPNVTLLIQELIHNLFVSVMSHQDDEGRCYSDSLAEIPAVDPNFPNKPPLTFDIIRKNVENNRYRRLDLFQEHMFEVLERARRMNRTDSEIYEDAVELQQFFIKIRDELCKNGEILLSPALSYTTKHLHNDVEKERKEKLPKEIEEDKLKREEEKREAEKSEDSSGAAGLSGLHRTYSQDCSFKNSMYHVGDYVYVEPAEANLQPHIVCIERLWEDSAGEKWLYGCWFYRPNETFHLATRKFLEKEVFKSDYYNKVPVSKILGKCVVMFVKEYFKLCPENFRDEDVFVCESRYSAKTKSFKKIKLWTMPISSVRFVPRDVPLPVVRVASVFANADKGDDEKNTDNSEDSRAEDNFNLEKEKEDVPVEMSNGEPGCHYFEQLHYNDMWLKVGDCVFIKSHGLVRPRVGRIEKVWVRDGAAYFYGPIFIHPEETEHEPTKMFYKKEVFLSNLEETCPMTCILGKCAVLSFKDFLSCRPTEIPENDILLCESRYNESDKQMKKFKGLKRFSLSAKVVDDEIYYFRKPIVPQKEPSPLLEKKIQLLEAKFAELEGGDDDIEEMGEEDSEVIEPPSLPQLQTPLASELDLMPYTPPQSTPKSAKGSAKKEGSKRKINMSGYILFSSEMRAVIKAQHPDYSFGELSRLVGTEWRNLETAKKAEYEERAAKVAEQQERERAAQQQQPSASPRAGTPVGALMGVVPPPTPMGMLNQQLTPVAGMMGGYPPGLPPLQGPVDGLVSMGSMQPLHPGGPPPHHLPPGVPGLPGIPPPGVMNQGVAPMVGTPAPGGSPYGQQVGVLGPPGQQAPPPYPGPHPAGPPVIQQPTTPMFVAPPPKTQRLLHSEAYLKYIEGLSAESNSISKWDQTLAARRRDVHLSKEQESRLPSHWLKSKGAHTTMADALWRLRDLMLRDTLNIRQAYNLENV
UniProt P51531: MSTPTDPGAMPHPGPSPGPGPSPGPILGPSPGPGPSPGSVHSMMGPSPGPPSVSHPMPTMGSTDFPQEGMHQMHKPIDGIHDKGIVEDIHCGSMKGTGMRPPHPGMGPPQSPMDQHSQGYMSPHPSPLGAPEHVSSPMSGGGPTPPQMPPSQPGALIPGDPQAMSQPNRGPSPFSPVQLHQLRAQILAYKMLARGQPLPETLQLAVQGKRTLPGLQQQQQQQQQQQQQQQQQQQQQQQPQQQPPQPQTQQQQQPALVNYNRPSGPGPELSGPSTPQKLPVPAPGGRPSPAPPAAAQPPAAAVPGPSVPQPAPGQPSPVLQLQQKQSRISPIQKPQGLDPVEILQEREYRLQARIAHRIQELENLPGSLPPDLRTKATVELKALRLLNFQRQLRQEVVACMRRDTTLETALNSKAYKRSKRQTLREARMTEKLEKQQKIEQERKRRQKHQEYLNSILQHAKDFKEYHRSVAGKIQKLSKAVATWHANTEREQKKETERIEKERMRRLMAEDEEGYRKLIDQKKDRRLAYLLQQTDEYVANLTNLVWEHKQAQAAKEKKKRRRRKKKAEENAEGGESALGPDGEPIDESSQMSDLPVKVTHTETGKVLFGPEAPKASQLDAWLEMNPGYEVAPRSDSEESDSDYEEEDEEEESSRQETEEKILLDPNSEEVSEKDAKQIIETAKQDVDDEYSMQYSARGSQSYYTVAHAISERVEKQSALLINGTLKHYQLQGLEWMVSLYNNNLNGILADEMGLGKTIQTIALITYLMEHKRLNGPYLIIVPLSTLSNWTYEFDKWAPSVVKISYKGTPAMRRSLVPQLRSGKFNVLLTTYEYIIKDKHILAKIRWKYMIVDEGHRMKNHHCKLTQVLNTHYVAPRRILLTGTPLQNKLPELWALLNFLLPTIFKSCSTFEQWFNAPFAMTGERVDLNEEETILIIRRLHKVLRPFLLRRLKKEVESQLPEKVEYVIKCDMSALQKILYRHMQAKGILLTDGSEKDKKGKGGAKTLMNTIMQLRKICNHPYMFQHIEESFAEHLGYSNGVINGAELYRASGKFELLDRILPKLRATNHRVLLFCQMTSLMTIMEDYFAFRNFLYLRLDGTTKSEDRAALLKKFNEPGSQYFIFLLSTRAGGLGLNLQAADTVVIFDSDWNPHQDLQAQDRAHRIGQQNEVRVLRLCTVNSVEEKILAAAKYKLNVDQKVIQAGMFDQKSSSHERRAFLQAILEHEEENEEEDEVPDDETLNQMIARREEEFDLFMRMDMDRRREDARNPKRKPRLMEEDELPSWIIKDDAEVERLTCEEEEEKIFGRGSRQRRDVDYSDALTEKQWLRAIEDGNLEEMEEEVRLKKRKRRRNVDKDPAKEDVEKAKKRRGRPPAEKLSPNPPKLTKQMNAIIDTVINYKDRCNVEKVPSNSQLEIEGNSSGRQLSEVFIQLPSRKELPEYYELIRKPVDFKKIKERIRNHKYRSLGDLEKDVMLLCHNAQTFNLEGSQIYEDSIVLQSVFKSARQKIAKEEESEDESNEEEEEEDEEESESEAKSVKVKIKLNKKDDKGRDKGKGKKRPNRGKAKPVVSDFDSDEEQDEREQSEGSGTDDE
UniProt Q96GM5: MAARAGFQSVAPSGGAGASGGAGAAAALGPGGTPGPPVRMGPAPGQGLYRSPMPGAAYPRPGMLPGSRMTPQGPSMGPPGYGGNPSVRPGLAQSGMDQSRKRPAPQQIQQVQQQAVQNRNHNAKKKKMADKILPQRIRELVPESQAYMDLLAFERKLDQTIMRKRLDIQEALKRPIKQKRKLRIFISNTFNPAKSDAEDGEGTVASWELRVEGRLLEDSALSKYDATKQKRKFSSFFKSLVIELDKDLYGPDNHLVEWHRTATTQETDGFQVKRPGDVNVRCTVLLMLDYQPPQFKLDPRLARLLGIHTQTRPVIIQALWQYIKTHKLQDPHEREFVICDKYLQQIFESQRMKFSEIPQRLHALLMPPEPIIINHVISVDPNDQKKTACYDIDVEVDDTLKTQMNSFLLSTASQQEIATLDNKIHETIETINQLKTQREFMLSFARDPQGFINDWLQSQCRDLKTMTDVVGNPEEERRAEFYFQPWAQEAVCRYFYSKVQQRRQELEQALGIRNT

biological target: T1, NCAPH2, the kleisin subunit of condensin II (human (endogenous in HEK-293T)) (UniProt Q6IBW4); experiment: affinity purification with mass spectrometry; immunoprecipitation with B276 versus rabbit IG from nuclear lysate of formaldehyde-crosslinked HEK 293T cells; RIPA buffer, Benzonase; SAINTexpress; performed twice
T1 sequence: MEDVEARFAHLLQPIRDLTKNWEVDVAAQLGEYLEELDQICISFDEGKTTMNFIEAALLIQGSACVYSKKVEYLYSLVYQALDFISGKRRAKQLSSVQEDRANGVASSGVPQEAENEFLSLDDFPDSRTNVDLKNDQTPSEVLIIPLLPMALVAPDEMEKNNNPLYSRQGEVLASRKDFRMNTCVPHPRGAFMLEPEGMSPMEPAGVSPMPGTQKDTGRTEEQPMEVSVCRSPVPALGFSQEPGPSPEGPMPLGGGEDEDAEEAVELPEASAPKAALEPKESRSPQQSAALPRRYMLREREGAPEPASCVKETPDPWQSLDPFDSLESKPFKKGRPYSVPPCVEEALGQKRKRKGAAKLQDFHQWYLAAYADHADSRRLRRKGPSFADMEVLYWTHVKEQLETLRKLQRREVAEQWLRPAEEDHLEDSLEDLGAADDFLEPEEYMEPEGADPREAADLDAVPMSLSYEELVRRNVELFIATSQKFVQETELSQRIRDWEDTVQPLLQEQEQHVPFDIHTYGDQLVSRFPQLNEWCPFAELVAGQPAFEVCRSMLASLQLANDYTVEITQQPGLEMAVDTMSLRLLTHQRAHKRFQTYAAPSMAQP

Q: For SMARCA4 (from UniProt P51532 1-1647), which binding is on record?
A: no binding

Q: How did the binding turn out when SMARCE1 (from UniProt Q969G3 1-411) was run?
A: no binding

biological target: T2, Ncaph2 (mouse embryonic stem cells) (mouse (endogenous in E14 mESC)) (UniProt Q8BSP2); experiment: affinity purification with mass spectrometry; immunoprecipitation with B276 (Bethyl A302-276A) versus rabbit IgG from E14 mESC whole cell extract, without crosslinking; 1% triton buffer, 5°C for 2 hours; label free quantification, n = 4
T2 sequence: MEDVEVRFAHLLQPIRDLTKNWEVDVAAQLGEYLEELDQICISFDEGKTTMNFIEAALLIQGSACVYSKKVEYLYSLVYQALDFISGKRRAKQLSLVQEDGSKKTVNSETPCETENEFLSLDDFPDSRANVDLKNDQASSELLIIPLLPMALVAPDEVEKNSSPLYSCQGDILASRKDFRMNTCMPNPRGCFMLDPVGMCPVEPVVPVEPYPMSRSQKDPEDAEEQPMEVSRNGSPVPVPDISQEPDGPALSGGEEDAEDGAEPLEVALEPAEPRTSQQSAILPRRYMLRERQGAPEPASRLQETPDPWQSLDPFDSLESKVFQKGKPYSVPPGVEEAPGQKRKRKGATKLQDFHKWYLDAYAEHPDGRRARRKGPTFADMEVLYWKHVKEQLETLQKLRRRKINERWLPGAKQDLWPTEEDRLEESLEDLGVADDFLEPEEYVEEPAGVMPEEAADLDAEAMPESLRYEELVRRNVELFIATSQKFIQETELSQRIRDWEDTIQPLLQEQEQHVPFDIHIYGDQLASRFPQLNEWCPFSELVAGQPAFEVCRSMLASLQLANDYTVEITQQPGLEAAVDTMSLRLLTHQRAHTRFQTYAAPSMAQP

Q: With “Smarcc1/Baf155 subunit (from UniProt P97496 1-1104)” as the substance, how does the binding read?
A: no binding

biological target: T1, NCAPH2, the kleisin subunit of condensin II (human (endogenous in HEK-293T)); experiment: affinity purification with mass spectrometry; immunoprecipitation with B276 versus rabbit IG from nuclear lysate of non-crosslinked HEK 293T cells; Benzonase, washes with 150mM NaCl; SAINTexpress; performed once

Q: How did the binding turn out when ACTL6A (from UniProt O96019 1-429) was run?
A: no binding

Q: For BRD7 (from UniProt Q9NPI1 1-651), which binding is on record?
A: no binding

Q: Which binding does the source give for DPF2 (from UniProt Q92785 1-391) here?
A: no binding

Q: With PBRM1 (from UniProt Q86U86 1-1689) as the substance, how does the binding read?
A: no binding

Q: For SMARCA2 (from UniProt P51531 1-1590), which binding is on record?
A: no binding

Q: How did the binding turn out when SMARCA4 (from UniProt P51532 1-1647) was run?
A: no binding

Q: Which binding does the source give for SMARCB1 (from UniProt Q12824 1-385) here?
A: no binding

Q: With SMARCC2 (from UniProt Q8TAQ2 1-1214) as the substance, how does the binding read?
A: no binding

Q: How did the binding turn out when SMARCD1 (from UniProt Q96GM5 1-515) was run?
A: no binding

Q: SMARCD2 (from UniProt Q92925 1-531) was tested. Which binding did it give?
A: no binding

Q: How did the binding turn out when SMARCD3 (from UniProt Q6STE5 1-483) was run?
A: no binding

Q: With SMARCE1 (from UniProt Q969G3 1-411) as the substance, how does the binding read?
A: no binding
